Consider eight targets from the supplement of paper PMC12819154, “High-throughput peptide-centric local stability assay extends protein–ligand identification to membrane proteins, tissues and bacteria” (Nature Structural & Molecular Biology, 2025).

By UniProt entry, the sequences of proteins in these tests, tags left out. Where a name states a change or a piece, a line headed by the entry shows the natural chain unless it says otherwise.
UniProt P06339: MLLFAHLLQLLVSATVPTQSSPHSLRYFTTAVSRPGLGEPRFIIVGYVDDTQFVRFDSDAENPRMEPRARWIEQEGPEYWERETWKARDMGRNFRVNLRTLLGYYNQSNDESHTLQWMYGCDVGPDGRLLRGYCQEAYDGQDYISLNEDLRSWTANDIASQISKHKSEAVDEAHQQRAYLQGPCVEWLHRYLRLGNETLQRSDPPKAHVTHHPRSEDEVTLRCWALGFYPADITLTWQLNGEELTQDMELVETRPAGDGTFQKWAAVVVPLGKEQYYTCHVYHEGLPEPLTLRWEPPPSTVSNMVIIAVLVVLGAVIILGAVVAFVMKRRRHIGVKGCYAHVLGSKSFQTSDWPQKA
UniProt P00375: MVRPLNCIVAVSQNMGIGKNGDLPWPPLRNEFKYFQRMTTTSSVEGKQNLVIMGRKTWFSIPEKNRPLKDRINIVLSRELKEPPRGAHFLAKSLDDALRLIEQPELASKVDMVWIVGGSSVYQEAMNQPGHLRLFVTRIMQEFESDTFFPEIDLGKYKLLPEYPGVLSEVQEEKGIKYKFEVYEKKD
UniProt P09528, whole entry: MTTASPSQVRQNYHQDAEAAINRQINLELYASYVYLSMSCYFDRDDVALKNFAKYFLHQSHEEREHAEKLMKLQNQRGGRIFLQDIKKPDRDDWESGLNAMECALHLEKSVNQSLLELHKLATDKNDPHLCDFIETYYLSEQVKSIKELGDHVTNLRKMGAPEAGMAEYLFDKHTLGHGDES
UniProt P15533: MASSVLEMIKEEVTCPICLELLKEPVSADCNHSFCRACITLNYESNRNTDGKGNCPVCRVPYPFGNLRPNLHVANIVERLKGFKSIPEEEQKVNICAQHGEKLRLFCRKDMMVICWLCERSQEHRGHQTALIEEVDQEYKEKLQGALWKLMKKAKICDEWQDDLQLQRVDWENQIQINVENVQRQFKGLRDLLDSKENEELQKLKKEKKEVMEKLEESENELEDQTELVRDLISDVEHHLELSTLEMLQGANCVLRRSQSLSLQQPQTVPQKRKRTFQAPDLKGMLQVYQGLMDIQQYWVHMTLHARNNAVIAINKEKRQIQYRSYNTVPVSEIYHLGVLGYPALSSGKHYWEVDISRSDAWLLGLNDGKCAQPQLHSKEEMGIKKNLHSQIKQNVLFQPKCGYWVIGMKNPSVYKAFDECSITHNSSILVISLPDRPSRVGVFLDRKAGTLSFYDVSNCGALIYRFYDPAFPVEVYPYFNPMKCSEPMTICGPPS
UniProt P0C7L0: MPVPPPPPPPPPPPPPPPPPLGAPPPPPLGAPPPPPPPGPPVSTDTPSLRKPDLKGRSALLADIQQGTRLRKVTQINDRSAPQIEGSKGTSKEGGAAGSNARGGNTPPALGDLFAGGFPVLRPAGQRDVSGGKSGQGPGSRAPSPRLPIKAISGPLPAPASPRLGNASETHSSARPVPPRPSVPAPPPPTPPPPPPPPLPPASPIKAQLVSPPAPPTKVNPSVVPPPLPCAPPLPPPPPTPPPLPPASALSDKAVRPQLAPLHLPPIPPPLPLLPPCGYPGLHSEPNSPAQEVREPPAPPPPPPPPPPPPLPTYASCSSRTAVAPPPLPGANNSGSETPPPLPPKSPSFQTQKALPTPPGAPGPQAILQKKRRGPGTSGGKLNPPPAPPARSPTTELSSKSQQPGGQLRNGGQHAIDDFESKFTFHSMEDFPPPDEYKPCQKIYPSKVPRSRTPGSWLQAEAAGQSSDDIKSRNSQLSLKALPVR
UniProt O89110: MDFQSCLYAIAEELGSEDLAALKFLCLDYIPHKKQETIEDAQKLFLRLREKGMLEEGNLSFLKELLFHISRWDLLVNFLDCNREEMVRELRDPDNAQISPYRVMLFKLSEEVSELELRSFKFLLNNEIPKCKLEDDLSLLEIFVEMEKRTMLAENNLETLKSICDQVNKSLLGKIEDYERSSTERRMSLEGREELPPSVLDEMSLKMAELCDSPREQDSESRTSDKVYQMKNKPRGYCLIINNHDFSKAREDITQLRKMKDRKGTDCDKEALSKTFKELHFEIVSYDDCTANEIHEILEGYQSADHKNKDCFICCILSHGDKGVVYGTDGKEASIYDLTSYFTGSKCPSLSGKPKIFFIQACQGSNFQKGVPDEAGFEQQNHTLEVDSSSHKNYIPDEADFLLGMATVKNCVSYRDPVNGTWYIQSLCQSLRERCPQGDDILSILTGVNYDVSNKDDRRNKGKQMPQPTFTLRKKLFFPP
UniProt P15331, whole entry: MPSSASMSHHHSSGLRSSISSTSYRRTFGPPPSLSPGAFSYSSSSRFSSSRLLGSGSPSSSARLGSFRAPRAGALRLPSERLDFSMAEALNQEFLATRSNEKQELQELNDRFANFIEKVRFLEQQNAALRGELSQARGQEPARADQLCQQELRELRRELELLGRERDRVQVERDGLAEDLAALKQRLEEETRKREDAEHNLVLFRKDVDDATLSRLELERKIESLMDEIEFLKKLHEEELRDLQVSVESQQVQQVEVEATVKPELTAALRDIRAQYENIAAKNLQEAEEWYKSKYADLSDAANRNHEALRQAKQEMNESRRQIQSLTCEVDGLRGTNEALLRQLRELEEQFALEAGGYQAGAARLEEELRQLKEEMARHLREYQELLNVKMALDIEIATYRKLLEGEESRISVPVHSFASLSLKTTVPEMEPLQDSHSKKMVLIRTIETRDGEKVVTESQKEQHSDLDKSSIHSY

The list shows a part of the results. Most entries show no effect beyond the scatter of the controls.

Compound in the assay: CN[C@@H]1C[C@H]2O[C@@](C)([C@@H]1OC)n1c3ccccc3c3c4c(c5c6ccccc6n2c5c31)C(=O)NC4 [staurosporine]
In words: log2 fold change of tryptic peptide abundance, ligand vs vehicle (limited proteolysis) (log2 ratio); higher = more trypsin-susceptible (destabilized). The note with it: ligand concentration: 20 uM; sample: mouse liver crude lysate; replicate design: treated separately.
Consider “UniProt P06339 (peptide sequence: AYLQGPCVEWLHR, peptide start residue: 178)”, for which the log2 fold change was found to be 0.305. Take “UniProt P00375 (peptide sequence: VRPLNCIVAVSQNMGIGK, peptide start residue: 2)”: the log2 fold change is -0.0814. With “UniProt P09528 (peptide sequence: ELGDHVTNLR, peptide start residue: 148)”, the log2 fold change was 0.296. With “UniProt P15533 (peptide sequence: KNLHSQIK, peptide start residue: 386)”, the log2 fold change is -0.0994. Consider “UniProt P0C7L0 (peptide sequence: SAPQIEGSK, peptide start residue: 80)”, for which the log2 fold change is -0.212.

On to “UniProt O89110 (peptide sequence: GTDCDKEALSK, peptide start residue: 264)”, for which the log2 fold change was -0.265. The same measure for “UniProt P14115 (peptide sequence: INFDKYHPGYFGKVGMR, peptide start residue: 43)”: -0.553.

Regarding “UniProt P15331 (peptide sequence: LHEEELR, peptide start residue: 235)”, the log2 fold change was -0.291.
